Laboratory results from patent publication US11680885B2, “Method, process, composition and kit for measuring concentration of molecules dissolved in the continuous phase of a colloid” (UNIVERSIDAD TÉCNICA FEDERICO SANTA MARÍA, priority 2017, dated 2023).

Assay: Measurement of concentration of molecules dissolved in the continuous phase of the standard AuNP@MUA colloid (centrifugation, RP-HPLC with UV-visible detection)
Assay type: physicochemical
Details: n=3

concentration in the control samples, equivalent to the continuous phase of the colloid (control samples: particle-free solution extracted from the colloid, 2.00 μM molecule added): 2000 nM | concentration of molecules dissolved in the continuous phase of the standard AuNP@MUA colloid (test samples, after incorporating 2.00 μM of the molecule into the colloid, centrifuged 24,000×g 15 min, average): 880 nM
Compound: O=C(O)c1cn(C2CC2)c2cc(N3CCNCC3)c(F)cc2c1=O [ciprofloxacin]
